Measured values as given in the supplement of paper PMC10849652.
The other results are listed elsewhere or left out.

Sequences of proteins named here, by UniProt entry; tags and fusion partners are left off. A change or cut given only in a name is not applied to a line headed by its entry.
UniProt Q9H4B7, whole entry, looked up: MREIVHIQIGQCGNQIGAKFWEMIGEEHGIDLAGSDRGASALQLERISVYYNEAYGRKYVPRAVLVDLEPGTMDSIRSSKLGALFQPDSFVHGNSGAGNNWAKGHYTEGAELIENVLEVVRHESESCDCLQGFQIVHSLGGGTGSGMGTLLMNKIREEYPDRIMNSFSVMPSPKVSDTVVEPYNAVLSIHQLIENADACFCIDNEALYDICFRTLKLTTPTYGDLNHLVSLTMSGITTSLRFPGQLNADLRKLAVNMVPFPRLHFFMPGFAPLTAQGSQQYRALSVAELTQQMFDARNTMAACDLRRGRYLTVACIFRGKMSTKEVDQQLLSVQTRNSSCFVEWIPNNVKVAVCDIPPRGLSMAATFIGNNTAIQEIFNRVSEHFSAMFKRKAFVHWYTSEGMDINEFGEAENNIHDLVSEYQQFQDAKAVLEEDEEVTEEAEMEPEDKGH
UniProt Q9BSL1: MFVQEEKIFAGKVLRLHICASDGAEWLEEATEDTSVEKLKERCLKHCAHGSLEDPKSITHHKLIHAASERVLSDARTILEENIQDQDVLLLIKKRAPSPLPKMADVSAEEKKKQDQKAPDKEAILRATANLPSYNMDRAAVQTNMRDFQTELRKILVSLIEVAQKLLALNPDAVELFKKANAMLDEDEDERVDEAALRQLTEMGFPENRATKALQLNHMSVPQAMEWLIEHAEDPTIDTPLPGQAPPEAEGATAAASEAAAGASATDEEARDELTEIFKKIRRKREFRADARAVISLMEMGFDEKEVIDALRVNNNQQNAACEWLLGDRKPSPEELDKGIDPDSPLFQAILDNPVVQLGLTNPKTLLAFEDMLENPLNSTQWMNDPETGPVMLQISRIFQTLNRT
UniProt Q9NNW7, whole entry, looked up: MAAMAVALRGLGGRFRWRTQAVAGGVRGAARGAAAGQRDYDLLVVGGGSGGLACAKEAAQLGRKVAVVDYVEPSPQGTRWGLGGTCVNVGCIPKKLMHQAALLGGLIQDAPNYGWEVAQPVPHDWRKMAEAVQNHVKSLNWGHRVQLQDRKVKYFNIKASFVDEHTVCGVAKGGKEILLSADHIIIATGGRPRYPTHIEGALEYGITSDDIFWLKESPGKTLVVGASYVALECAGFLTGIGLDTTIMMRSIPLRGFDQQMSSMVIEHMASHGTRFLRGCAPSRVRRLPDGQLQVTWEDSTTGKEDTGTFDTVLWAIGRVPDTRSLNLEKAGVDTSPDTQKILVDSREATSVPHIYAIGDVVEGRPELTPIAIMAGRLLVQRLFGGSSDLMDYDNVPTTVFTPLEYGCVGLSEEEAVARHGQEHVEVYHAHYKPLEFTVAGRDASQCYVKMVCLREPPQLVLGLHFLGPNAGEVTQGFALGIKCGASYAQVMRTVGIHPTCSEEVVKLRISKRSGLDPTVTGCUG
UniProt Q9Y5U2: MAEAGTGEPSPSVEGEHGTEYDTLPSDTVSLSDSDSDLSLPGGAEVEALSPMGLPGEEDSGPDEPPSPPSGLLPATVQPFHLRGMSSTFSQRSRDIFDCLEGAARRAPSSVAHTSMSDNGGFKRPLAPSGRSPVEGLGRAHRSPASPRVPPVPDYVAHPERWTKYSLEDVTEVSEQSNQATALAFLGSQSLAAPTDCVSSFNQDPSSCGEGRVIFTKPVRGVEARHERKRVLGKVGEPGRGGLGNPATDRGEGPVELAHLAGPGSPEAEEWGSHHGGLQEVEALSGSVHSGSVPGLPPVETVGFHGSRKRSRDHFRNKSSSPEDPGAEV
UniProt Q9BTX7: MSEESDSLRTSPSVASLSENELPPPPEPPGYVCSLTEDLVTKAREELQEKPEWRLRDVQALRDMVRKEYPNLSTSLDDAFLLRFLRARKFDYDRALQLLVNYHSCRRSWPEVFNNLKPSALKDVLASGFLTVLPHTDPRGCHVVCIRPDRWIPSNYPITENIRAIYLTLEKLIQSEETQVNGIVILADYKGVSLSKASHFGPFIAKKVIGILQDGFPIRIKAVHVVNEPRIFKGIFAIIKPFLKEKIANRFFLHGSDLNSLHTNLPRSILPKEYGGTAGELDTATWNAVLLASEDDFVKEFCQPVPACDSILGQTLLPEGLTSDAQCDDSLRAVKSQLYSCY
UniProt Q9BQE3, whole entry, looked up: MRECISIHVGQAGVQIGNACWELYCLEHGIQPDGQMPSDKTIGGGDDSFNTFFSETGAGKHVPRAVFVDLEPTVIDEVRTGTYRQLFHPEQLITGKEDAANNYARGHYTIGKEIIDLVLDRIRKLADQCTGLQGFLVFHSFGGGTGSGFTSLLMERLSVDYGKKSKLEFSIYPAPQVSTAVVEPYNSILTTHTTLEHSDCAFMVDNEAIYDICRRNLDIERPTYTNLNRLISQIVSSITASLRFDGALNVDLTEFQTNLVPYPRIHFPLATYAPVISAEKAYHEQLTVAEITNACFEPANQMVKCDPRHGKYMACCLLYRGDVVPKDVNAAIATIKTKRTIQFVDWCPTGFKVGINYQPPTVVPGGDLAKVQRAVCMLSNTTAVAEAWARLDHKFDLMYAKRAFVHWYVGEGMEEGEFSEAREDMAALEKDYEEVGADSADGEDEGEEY
UniProt P68363, whole entry, looked up: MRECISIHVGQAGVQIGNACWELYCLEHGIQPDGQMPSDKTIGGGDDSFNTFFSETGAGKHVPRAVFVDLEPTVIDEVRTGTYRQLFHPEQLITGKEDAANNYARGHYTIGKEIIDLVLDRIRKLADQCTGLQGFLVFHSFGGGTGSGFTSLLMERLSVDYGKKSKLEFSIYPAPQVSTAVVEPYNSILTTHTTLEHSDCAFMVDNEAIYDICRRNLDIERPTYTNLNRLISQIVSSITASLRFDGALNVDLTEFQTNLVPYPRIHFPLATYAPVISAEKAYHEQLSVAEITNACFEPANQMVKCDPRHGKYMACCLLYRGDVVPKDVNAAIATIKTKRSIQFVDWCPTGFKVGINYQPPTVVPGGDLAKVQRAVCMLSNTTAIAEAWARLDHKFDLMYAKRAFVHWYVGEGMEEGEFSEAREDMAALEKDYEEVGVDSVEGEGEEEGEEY
UniProt Q9UJK0: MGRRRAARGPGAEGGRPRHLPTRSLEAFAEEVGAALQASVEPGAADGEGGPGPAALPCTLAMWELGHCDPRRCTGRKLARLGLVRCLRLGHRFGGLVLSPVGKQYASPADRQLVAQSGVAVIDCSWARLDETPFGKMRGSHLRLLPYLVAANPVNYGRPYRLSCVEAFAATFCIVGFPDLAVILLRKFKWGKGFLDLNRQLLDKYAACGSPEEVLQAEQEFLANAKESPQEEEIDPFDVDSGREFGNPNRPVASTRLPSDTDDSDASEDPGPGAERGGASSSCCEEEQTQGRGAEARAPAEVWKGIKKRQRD
UniProt Q9GZX9: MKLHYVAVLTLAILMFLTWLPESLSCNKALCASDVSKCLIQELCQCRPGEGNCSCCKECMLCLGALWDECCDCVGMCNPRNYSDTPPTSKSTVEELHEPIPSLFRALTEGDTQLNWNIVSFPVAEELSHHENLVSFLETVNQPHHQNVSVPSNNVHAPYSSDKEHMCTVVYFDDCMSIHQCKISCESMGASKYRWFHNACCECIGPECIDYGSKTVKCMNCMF
UniProt Q6DKK2: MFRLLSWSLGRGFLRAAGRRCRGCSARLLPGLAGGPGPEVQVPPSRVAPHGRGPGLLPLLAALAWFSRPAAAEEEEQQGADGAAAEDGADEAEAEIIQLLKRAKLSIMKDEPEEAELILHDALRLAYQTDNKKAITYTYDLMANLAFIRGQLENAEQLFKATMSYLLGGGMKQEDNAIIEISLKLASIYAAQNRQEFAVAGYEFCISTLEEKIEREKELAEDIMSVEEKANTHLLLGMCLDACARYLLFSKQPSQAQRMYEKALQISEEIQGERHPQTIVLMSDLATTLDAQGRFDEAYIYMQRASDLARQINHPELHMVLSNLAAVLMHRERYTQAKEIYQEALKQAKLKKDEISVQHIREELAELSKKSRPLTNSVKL
UniProt P61081: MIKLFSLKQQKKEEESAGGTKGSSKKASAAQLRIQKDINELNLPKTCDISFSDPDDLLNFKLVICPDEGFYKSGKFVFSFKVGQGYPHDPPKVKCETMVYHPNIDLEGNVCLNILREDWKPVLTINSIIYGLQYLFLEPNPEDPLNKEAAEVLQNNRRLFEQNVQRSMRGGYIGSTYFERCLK
UniProt Q15819: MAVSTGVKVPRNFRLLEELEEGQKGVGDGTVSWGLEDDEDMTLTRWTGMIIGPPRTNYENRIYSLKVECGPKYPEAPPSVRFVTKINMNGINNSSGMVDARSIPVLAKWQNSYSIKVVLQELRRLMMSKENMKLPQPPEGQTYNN
UniProt P61086: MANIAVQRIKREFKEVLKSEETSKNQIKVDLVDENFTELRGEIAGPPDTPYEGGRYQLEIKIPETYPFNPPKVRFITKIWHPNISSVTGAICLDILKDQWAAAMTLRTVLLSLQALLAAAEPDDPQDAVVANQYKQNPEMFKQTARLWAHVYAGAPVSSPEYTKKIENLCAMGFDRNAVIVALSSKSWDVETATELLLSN
UniProt Q969M7: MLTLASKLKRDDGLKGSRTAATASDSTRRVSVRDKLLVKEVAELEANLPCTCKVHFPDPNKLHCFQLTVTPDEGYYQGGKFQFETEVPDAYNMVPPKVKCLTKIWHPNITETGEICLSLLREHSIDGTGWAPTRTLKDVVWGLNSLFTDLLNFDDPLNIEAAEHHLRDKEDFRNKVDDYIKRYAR
UniProt Q712K3: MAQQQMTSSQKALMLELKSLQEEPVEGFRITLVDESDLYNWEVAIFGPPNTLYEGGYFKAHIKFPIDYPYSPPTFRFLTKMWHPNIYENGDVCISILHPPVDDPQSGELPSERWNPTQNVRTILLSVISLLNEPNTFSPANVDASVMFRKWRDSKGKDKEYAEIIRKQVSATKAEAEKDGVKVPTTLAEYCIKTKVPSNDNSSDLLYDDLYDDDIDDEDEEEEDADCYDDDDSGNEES

Experiments:
Experiment in all cases: log2 fold change, soluble protein after heating vs DMSO (PISA); higher = thermal stabilisation; K562 cells, 10 uM, 30 min; active = over 0.2 and 3.5 SD of the protein, either way, in both replicates (recomputed)
[1] = compound: CC[C@@H]1C(=O)N(C)c2cnc(Nc3ccc(C(=O)NC4CCN(C)CC4)cc3OC)nc2N1C1CCCC1
Summary of the method: (§1)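 K562 cells (2×10^6 cells/mL) were treated with 10 μM compound for 30 min, and aliquots were heated for 3 min over 48°C-58°C. Pooled aliquots were extracted in PBS with 0.5% NP-40 at 4°C, and the supernatant after 21,000xg for 90 min was measured by TMTpro 16plex LC-MS/MS with channel sums equalised. Reported thermal stability, relative to control samples and from duplicates, is a log2 fold change.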

volasertib = compound: CC[C@@H]1C(=O)N(C)c2cnc(Nc3ccc(C(=O)N[C@H]4CC[C@H](N5CCN(CC6CC6)CC5)CC4)cc3OC)nc2N1C(C)C [volasertib]
Summary of the method: as §1

[2] = compound: CC[C@H](C)N1C=C(C2=C(C=C(C=C21)C3=CN=C(C=C3)N4CCNCC4)C(=O)NCC5=C(C=C(NC5=O)C)C)C
Summary of the method: as §1

epoxomicin = compound: CC[C@H](C)[C@@H](C(=O)N[C@@H]([C@@H](C)O)C(=O)N[C@@H](CC(C)C)C(=O)[C@]1(CO1)C)NC(=O)[C@H]([C@@H](C)CC)N(C)C(=O)C [epoxomicin]
Summary of the method: as §1

[3] = compound: CCn1c(C(=O)N(C2CC2)C2CC2)cc2c3c(ncn3C)c(Nc3cc(C)n(C)n3)nc21
Summary of the method: as §1

[4] = compound: CCn1cc(-c2ccnc3[nH]c(-c4cccc(CN(C)C)c4)cc23)c(-c2ccc(NC(=O)N(C)C)cc2)n1
Summary of the method: as §1

[5] = compound: CN(C)CC(=O)Nc1ccc2[nH]c(=O)c3ccccc3c2c1
Summary of the method: as §1

rosiglitazone = compound: CN(CCOC1=CC=C(C=C1)C[C@H]2C(=O)NC(=O)S2)C3=CC=CC=N3 (racemic) [rosiglitazone]
Summary of the method: as §1

[6] = compound: CN1C2=C(C3=C1C(=O)N(N=C3)CC4=CC(=CC=C4)N)SC(=C2)S(=O)C
Summary of the method: as §1

[7] = compound: CN1CCC(CNc2ccc3ncc(-c4cccc(OC(F)(F)F)c4)n3n2)CC1
Summary of the method: as §1

saracatinib = compound: CN1CCN(CCOc2cc(OC3CCOCC3)c3c(Nc4c(Cl)ccc5c4OCO5)ncnc3c2)CC1 [saracatinib]
Summary of the method: as §1

sotrastaurin = compound: CN1CCN(c2nc(C3=C(c4c[nH]c5ccccc45)C(=O)NC3=O)c3ccccc3n2)CC1 [sotrastaurin]
Summary of the method: as §1

alvocidib = compound: CN1CC[C@H](c2c(O)cc(O)c3c(=O)cc(-c4ccccc4Cl)oc23)[C@H](O)C1 [alvocidib]
Summary of the method: as §1

Tubastatin A = compound: CN1CCc2c(c3ccccc3n2Cc2ccc(C(=O)NO)cc2)C1 [Tubastatin A]
Summary of the method: as §1

[8] = compound: CNC(=O)C1=CC=CC=C1NC2=NC(=NC=C2Cl)NC3=C(C=C(C=C3)N4CCOCC4)OC
Summary of the method: as §1

defactinib = compound: CNC(=O)c1ccc(Nc2ncc(C(F)(F)F)c(NCc3nccnc3N(C)S(C)(=O)=O)n2)cc1 [defactinib]
Summary of the method: as §1

rucaparib = compound: CNCc1ccc(-c2[nH]c3cc(F)cc4c3c2CCNC4=O)cc1 [rucaparib]
Summary of the method: as §1

[9] = compound: CNc1nc(-c2ccc3c(N)n[nH]c3c2)cc(N2C[C@@H](C(=O)NC3CCCCC3)CC[C@H]2C)n1
Summary of the method: as §1

encorafenib = compound: COC(=O)N[C@@H](C)CNc1nccc(-c2cn(C(C)C)nc2-c2cc(Cl)cc(NS(C)(=O)=O)c2F)n1 [encorafenib]
Summary of the method: as §1

[10] = compound: COC(=O)[C@H](CCSC)NC(=O)C1=C(C=C(C=C1)NC[C@H](CS)N)C2=CC=CC=C2
Summary of the method: as §1

Measured: log2 fold change

TUBB1 (UniProt Q9H4B7)
inactive: [1] -0.037 | volasertib 0.083 | [2] 0.051 | epoxomicin -0.016 | [3] 0.008 | [4] -0.054 | [5] 0.012 | rosiglitazone 0.028 | [6] -0.063 | [7] -0.083 | saracatinib 0.06 | sotrastaurin -0.032 | alvocidib -0.089 | Tubastatin A -0.001 | [8] -0.053 | defactinib -0.025 | rucaparib -0.045 | [9] 0.047 | encorafenib 0.011 | [10] -0.003

UBAC1 (UniProt Q9BSL1)
inactive: [1] -0.034 | volasertib -0.167 | [2] 0.025 | epoxomicin 0.118 | [3] -0.009 | [4] -0.041 | [5] 0.009 | rosiglitazone 0.034 | [6] -0.061 | [7] 0.034 | saracatinib 0.02 | sotrastaurin -0.07 | alvocidib -0.109 | Tubastatin A 0.059 | [8] 0.049 | defactinib -0.102 | rucaparib -0.072 | [9] -0.044 | encorafenib 0.024 | [10] -0.035

TUBB4A (UniProt M0QYM7)
inactive: [1] 0.11 | volasertib -0.002 | [2] -0.211 | epoxomicin -0.229 | [3] 0.064 | [4] 0.052 | [5] -0.114 | rosiglitazone 0.205 | [6] 0.062 | [7] -0.3 | saracatinib -0.218 | sotrastaurin 0.148 | alvocidib -0.049 | Tubastatin A 0.293 | [8] 0.036 | defactinib 0.17 | rucaparib -0.16 | [9] -0.065 | encorafenib -0.036 | [10] 0.111

TXNRD2 (UniProt Q9NNW7)
inactive: [1] -0.036 | volasertib -0.019 | [2] 0.129 | epoxomicin -0.007 | [3] -0.048 | [4] -0.082 | [5] 0.01 | rosiglitazone 0.046 | [6] -0.054 | [7] 0.095 | saracatinib 0.043 | sotrastaurin 0.058 | alvocidib -0.067 | Tubastatin A -0.019 | [8] 0.117 | defactinib -0.047 | rucaparib -0.027 | [9] -0.064 | encorafenib 0.045 | [10] 0.029

TSSC4 (UniProt Q9Y5U2)
inactive: [1] 0.135 | volasertib 0.273 | [2] -0.048 | epoxomicin -0.137 | [3] 0.087 | [4] 0.088 | [5] -0.001 | rosiglitazone -0.039 | [6] 0.025 | [7] -0.085 | saracatinib -0.091 | sotrastaurin 0.042 | alvocidib 0.066 | Tubastatin A -0.056 | [8] 0.062 | defactinib 0.111 | rucaparib 0.021 | [9] 0.084 | encorafenib -0.124 | [10] 0.088

TTPAL (UniProt Q9BTX7)
inactive: [1] 0.044 | volasertib -0.251 | [2] 0.095 | epoxomicin 0.048 | [3] -0.018 | [4] -0.098 | [5] 0.1 | rosiglitazone 0.034 | [6] -0.032 | [7] 0.082 | saracatinib 0.182 | sotrastaurin -0.038 | alvocidib -0.142 | Tubastatin A 0.003 | [8] -0.108 | defactinib -0.048 | rucaparib -0.004 | [9] 0.058 | encorafenib 0.013 | [10] 0.017

TUBA1C (UniProt Q9BQE3)
inactive: [1] -0.023 | volasertib 0.013 | [2] -0.016 | epoxomicin 0.029 | [3] -0.025 | [4] -0.058 | [5] 0.023 | rosiglitazone 0.007 | [6] -0.069 | [7] -0.116 | saracatinib 0.057 | sotrastaurin -0.008 | alvocidib -0.021 | Tubastatin A -0.032 | [8] 0.005 | defactinib -0.066 | rucaparib 0.034 | [9] 0.048 | encorafenib -0.019 | [10] 0.003

TUBA1B (UniProt P68363)
inactive: [1] -0.029 | volasertib 0.059 | [2] -0.022 | epoxomicin -0.016 | [3] 0.008 | [4] -0.064 | [5] -0.006 | rosiglitazone 0.034 | [6] -0.052 | [7] -0.16 | saracatinib 0.011 | sotrastaurin 0.043 | alvocidib 0.016 | Tubastatin A -0.048 | [8] -0.07 | defactinib -0.005 | rucaparib -0.07 | [9] -0.003 | encorafenib 0.013 | [10] 0.024

2 records drawn at random from the list so far, as already listed:
TSSC4 (UniProt Q9Y5U2)
inactive: [1] 0.135 | volasertib 0.273 | [2] -0.048 | epoxomicin -0.137 | [3] 0.087 | [4] 0.088 | [5] -0.001 | rosiglitazone -0.039 | [6] 0.025 | [7] -0.085 | saracatinib -0.091 | sotrastaurin 0.042 | alvocidib 0.066 | Tubastatin A -0.056 | [8] 0.062 | defactinib 0.111 | rucaparib 0.021 | [9] 0.084 | encorafenib -0.124 | [10] 0.088

UBAC1 (UniProt Q9BSL1)
inactive: [1] -0.034 | volasertib -0.167 | [2] 0.025 | epoxomicin 0.118 | [3] -0.009 | [4] -0.041 | [5] 0.009 | rosiglitazone 0.034 | [6] -0.061 | [7] 0.034 | saracatinib 0.02 | sotrastaurin -0.07 | alvocidib -0.109 | Tubastatin A 0.059 | [8] 0.049 | defactinib -0.102 | rucaparib -0.072 | [9] -0.044 | encorafenib 0.024 | [10] -0.035

More results:

TSR3 (UniProt Q9UJK0)
inactive: [1] 0.121 | volasertib 0.093 | [2] -0.042 | epoxomicin -0.054 | [3] 0.008 | [4] 0.048 | [5] -0.057 | rosiglitazone -0.023 | [6] 0.092 | [7] 0.103 | saracatinib 0.022 | sotrastaurin 0.08 | alvocidib 0.135 | Tubastatin A 0.053 | [8] -0.001 | defactinib 0.068 | rucaparib 0.024 | [9] 0.008 | encorafenib 0.006 | [10] 0.041

TWSG1 (UniProt Q9GZX9)
inactive: [1] 0.049 | volasertib 0.068 | [2] -0.023 | epoxomicin 0.013 | [3] 0.006 | [4] -0.042 | [5] -0.029 | rosiglitazone 0.008 | [6] -0.011 | [7] 0.047 | saracatinib 0.066 | sotrastaurin 0.039 | alvocidib 0.022 | Tubastatin A -0.026 | [8] 0 | defactinib -0.024 | rucaparib -0.003 | [9] -0.06 | encorafenib 0 | [10] 0.078

TTC19 (UniProt Q6DKK2)
inactive: [1] -0.035 | volasertib -0.136 | [2] -0.059 | epoxomicin 0.009 | [3] -0.006 | [4] -0.014 | [5] 0.026 | rosiglitazone 0.028 | [6] -0.001 | [7] -0.053 | saracatinib -0.01 | sotrastaurin -0.008 | alvocidib 0.047 | Tubastatin A 0.024 | [8] -0.008 | defactinib -0.034 | rucaparib 0.027 | [9] 0.006 | encorafenib -0.009 | [10] -0.01

UBE2M (UniProt P61081)
inactive: [1] -0.073 | volasertib -0.126 | [2] 0.047 | epoxomicin 0.041 | [3] -0.026 | [4] -0.002 | [5] 0.012 | rosiglitazone 0.04 | [6] -0.044 | [7] -0.08 | saracatinib 0.009 | sotrastaurin 0.021 | alvocidib -0.075 | Tubastatin A 0.022 | [8] 0.018 | defactinib -0.087 | rucaparib -0.041 | [9] -0.004 | encorafenib 0.022 | [10] -0.027

UBE2V2 (UniProt Q15819)
inactive: [1] -0.026 | volasertib 0.026 | [2] -0.003 | epoxomicin 0.015 | [3] 0 | [4] -0.032 | [5] -0.016 | rosiglitazone 0.028 | [6] -0.049 | [7] -0.058 | saracatinib 0.012 | sotrastaurin 0.029 | alvocidib -0.047 | Tubastatin A -0.007 | [8] -0.009 | defactinib -0.009 | rucaparib 0.052 | [9] 0.005 | encorafenib -0.046 | [10] 0.009

UBE2K (UniProt P61086)
inactive: [1] -0.033 | volasertib -0.026 | [2] 0.018 | epoxomicin 0.069 | [3] -0.003 | [4] -0.011 | [5] -0.034 | rosiglitazone -0.027 | [6] -0.075 | [7] -0.081 | saracatinib 0.037 | sotrastaurin 0.002 | alvocidib -0.048 | Tubastatin A -0.037 | [8] 0.011 | defactinib -0.03 | rucaparib -0.071 | [9] -0.022 | encorafenib 0.014 | [10] 0.029

UBE2F isoform 2 (UniProt Q969M7)
inactive: [1] -0.03 | volasertib -0.055 | [2] 0.046 | epoxomicin -0.012 | [3] -0.131 | [4] -0.104 | [5] -0.058 | rosiglitazone -0.035 | [6] -0.114 | [7] -0.026 | saracatinib 0.031 | sotrastaurin 0.031 | alvocidib -0.064 | Tubastatin A 0.063 | [8] 0.038 | defactinib -0.012 | rucaparib -0.027 | [9] -0.051 | encorafenib -0.018 | [10] 0.014

UBE2R2 (UniProt Q712K3)
inactive: [1] -0.037 | volasertib -0.135 | [2] 0.044 | epoxomicin -0.009 | [3] 0.051 | [4] 0.017 | [5] -0.021 | rosiglitazone 0.015 | [6] -0.147 | [7] -0.059 | saracatinib -0.005 | sotrastaurin -0.029 | alvocidib -0.086 | Tubastatin A -0.01 | [8] 0.014 | defactinib -0.027 | rucaparib -0.025 | [9] -0.008 | encorafenib 0.008 | [10] -0.021
